System: CypA
Experiment: CypA expression level in gene-transfected cells by Western blot
Format: cell-based, rat
Details: transfected H9c2 cells, c-myc and CypA antibodies

## CypA/W121F: mutated rat CypA with phenylalanine instead of tryptophan at position 121, transfected into H9c2 myoblasts
  CypA expression level relative to base expression from chromosomal DNA: twice as much

— patent US20080181875A1, “USE OF CYCLOPHILIN AS ANTIOXIDANT AND PREVENTION OF CYCLOSPORIN A-INDUCED TOXICITY IN CELL TRANSPLANTATION BY OVEREXPRESSION OF CYCLOPHILIN” (priority 2002, published 2008)
